The campaign covered roughly 400,000 compounds. About 13,000 (3.2%) were called active. Inconclusive results, whose numbers are uncertain, are shown with a selection of clear calls. Calls follow the shape of the dose curve; as a rule, active = well fitted cell-killing curve with a large enough effect; inconclusive = small, poorly fitted or top-dose-only effect, or effect the other way; inactive = flat fitted curve, though single readings scatter. A potency beside an inconclusive call is a rough fit, not a confirmed value.
Test: qHTS assay for MDR1-selective chemotherapeutics: Primary screen using the drug-selected MDR subline cells KB-V1; also: nearly all actives have a fitted effect of over 60% in size
Settings: KB-V1 MDR cells viability, CellTiter-Glo, 72 h; series mostly up to 46.1 µM
How it was run: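 Cytotoxicity via CellTiter-Glo luminescence after 72 h compound exposure at 37 degrees C. Cells: drug-selected KB-V1 line, DMEM phenol-red free plus 10% FBS. Compounds tested at multiple concentrations; normalized data fitted to concentration-effect curves.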
Potency is read from the fitted curve at half-maximal effect.

Question: Which Potency does the source give for Cc1ccc2nc3n(c2c1)CCCN3 here?
Answer: The Potency was inconclusive: 20.6 µM [cytotoxic, single point].

Question: With Cc1cc(C)cc(N(CC(=O)NCc2ccc(F)cc2)C(=O)CCC(=O)Nc2ccccn2)c1 as the compound, how does the Potency read?
Answer: Its Potency is inconclusive: 4.11 µM [cytotoxic, full curve].

Question: Which Potency does the source give for CC(C)(C)c1ccc(-c2nnc(NC(=O)Nc3ccc4ccccc4c3)s2)cc1 here?
Answer: The Potency was “inactive”.

Question: For CC(Oc1ccc2cc(-c3ccccc3)c(=O)oc2c1)C(=O)NCC1CCC(C(=O)O)CC1 (configuration not stated), which Potency is on record?
Answer: The Potency was “inactive”.

Question: For CC1(C)CC(=O)C(CSC(=O)c2ccccc2)C(=O)C1, which Potency is on record?
Answer: Its Potency is “inactive”.

Question: With Cc1cc(C)c2nc(N(CCN(C)C)C(=O)c3ccc4ccccc4c3)sc2c1 as the compound, how does the Potency read?
Answer: The Potency was inconclusive: 13 µM [rising, partial curve].

Question: Which Potency does the source give for CC(=O)O[C@@H](Cc1ccc(O)cc1)C(=O)CC(C)C here?
Answer: The Potency was “inactive”.

Question: With COc1ccc2[nH]c(=O)c(CN(C(=O)c3cccc(Cl)c3)c3ccccc3C)cc2c1 as the compound, how does the Potency read?
Answer: The Potency was “inactive”.

Question: With Cc1ccc(S(=O)(=O)N2[C@@H](c3cccc(C)c3)C(C(=O)O)=C[C@H]2C(C)(C)C)cc1 as the compound, how does the Potency read?
Answer: Its Potency is “inactive”.

Question: For O=C(NCCC1=CCCCC1)C1CCN(C(=O)Cc2ccccc2)CC1, which Potency is on record?
Answer: The Potency was inconclusive: 13 µM [cytotoxic, partial curve, poor fit].

Question: For Cc1ccc(-c2c(C#N)c(N)n3c(nc4ccccc43)c2C#N)cc1, which Potency is on record?
Answer: The Potency was inconclusive: 25.9 µM [cytotoxic, single point].

Question: For CCOC(=O)c1sc(NC(=O)CSc2nc(O)c(Cc3ccccc3)c(=O)[nH]2)nc1C, which Potency is on record?
Answer: The Potency was inconclusive: 0.231 µM [rising, full curve].

Question: For Cn1ccsc1=NC(=O)c1ccccc1F, which Potency is on record?
Answer: Its Potency is “inactive”.

Question: Which Potency does the source give for COc1ccc2occ(CC(=O)Nc3ccc(S(=O)(=O)Nc4nccc(C)n4)cc3)c2c1 here?
Answer: Its Potency is “inactive”.

Question: For CC1CN(c2ccc(Cl)cc2)c2nc3c(c(=O)n(CC(=O)O)c(=O)n3C)n2C1 (configuration not stated), which Potency is on record?
Answer: The Potency was inconclusive: 29.1 µM [rising, single point].

Question: For CC(OC(=O)COc1ccccc1[N+](=O)[O-])C(=O)Nc1ccc(N2CCOCC2)cc1 (configuration not stated), which Potency is on record?
Answer: Its Potency is inconclusive: 14.6 µM [rising, partial curve].

Question: With COc1ccc(N2CCN(C(=O)CCCn3c(=S)[nH]c4cc5c(cc4c3=O)OCO5)CC2)cc1 as the compound, how does the Potency read?
Answer: The Potency was “inactive”.

Question: Which Potency does the source give for C=CCn1c(SCC(=O)NC(=O)NCc2ccco2)nc2sc(C)c(C)c2c1=O here?
Answer: The Potency was inconclusive: 4.11 µM [cytotoxic, full curve, poor fit].

Question: For Cc1cc2nnc(SCc3ccc(F)cc3)n2c2ccccc12, which Potency is on record?
Answer: The Potency was inconclusive: 29.1 µM [cytotoxic, single point].

Question: Which Potency does the source give for Cc1ccc(NC(=S)NNC(=O)c2ccc(N3CCOCC3)c([N+](=O)[O-])c2)cc1C here?
Answer: Its Potency is inconclusive: 23.1 µM [cytotoxic, partial curve, poor fit].

Question: With Cc1ccc(-c2ccc(S(=O)(=O)NCC3CCCO3)cc2)cc1 (configuration not stated) as the compound, how does the Potency read?
Answer: The Potency was inconclusive: 9.2 µM [cytotoxic, partial curve, poor fit].

Question: For Cc1ccc(-c2cnc(C3CC3)o2)cc1S(=O)(=O)Nc1ccccc1, which Potency is on record?
Answer: Its Potency is inconclusive: 16.4 µM [cytotoxic, partial curve].

Question: Which Potency does the source give for S=C(Nc1ccccc1Oc1ccccc1)Nc1cccc(Cl)c1Cl here?
Answer: Its Potency is active: 20.6 µM.

Question: For COc1ccc2ncn(-c3ccccc3)c2c1, which Potency is on record?
Answer: The Potency was inconclusive: 29.1 µM [cytotoxic, partial curve, poor fit].

Question: With FC(F)(F)c1ccc(NC(=S)NC2CCCCC2)cc1 as the compound, how does the Potency read?
Answer: The Potency was inconclusive: 29.1 µM [cytotoxic, single point].

Question: For Cc1ccc(NC(=O)CN2C(=O)C3CC=CCC3C2=O)cc1S(=O)(=O)N1CCOCC1 (configuration not stated), which Potency is on record?
Answer: Its Potency is inconclusive: 20.6 µM [rising, single point].

Question: Which Potency does the source give for CC(=O)Nc1nnc(SCC(=O)N2CCc3ccccc32)s1 here?
Answer: Its Potency is inconclusive: 18.4 µM [rising, single point].

Question: For Cc1ccccc1CS(=O)(=O)Cc1ccc(C(=O)NCCCN2CCOCC2)o1, which Potency is on record?
Answer: The Potency was “inactive”.

Question: With Cc1occc1-c1nnc(SCC(=O)Nc2ccccc2)n1CCc1ccccc1 as the compound, how does the Potency read?
Answer: The Potency was inconclusive: 20.6 µM [cytotoxic, single point].

Question: With COc1ccc(NC(=O)c2cc(C)nc3ccccc23)c(OC)c1 as the compound, how does the Potency read?
Answer: The Potency was inconclusive: 8.2 µM [cytotoxic, partial curve].

Question: For CC(=O)CC1c2cc(F)ccc2C=C(c2ccsc2)N1c1ccc(-c2cccnc2)cc1 (configuration not stated), which Potency is on record?
Answer: Its Potency is inconclusive: 32.6 µM [cytotoxic, single point].

Question: With Cc1c(OCC(=O)NCC2CCC(C(=O)O)CC2)ccc2c(-c3ccccc3)cc(=O)oc12 (configuration not stated) as the compound, how does the Potency read?
Answer: The Potency was “inactive”.

Question: Which Potency does the source give for CC1CCN(c2cc(N3CCOCC3)c(F)cc2[N+](=O)[O-])CC1 here?
Answer: Its Potency is inconclusive: 16.4 µM [cytotoxic, single point].

Question: With COc1cc(NCCCn2cnc3c(OC)ncnc32)cc(OC)c1OC as the compound, how does the Potency read?
Answer: Its Potency is inconclusive: 23.1 µM [cytotoxic, partial curve, poor fit].

Question: For O=C(c1ccc(Cl)c(S(=O)(=O)N2CCCC2)c1)N1CCCC(C(F)(F)F)C1 (configuration not stated), which Potency is on record?
Answer: The Potency was inconclusive: 8.2 µM [cytotoxic, partial curve].

Question: For Cc1cccc(C(=O)Oc2cccc3c(O)cccc23)c1, which Potency is on record?
Answer: The Potency was inconclusive: 23.1 µM [rising, single point].

Question: Which Potency does the source give for CC(C)(C)c1cc(N2CCOCC2)n2ncc(-c3ccc(Cl)cc3)c2n1 here?
Answer: The Potency was “inactive”.

Question: With Cn1c(=O)c2c(nc(Br)n2CCc2ccccc2)n(C)c1=O as the compound, how does the Potency read?
Answer: The Potency was active: 16.4 µM.

Question: For COc1ccc(CCNC(=O)COC(=O)c2cc(S(=O)(=O)N3CCOCC3)ccc2C)cc1OC, which Potency is on record?
Answer: The Potency was inconclusive: 16.4 µM [cytotoxic, partial curve, poor fit].

Question: For Cc1cccc(C)c1Nc1c(-c2ccccc2F)nc2cccc(C)n12, which Potency is on record?
Answer: Its Potency is “inactive”.

Question: With C[C@H](CO)N1C[C@H](C)[C@@H](CN(C)C(=O)Nc2ccccc2)Oc2c(NS(=O)(=O)c3ccc(F)cc3)cccc2C1=O as the compound, how does the Potency read?
Answer: The Potency was “inactive”.

Question: Which Potency does the source give for Cc1cccc2cc(CN(CC3CCCO3)C(=O)c3cnccn3)c(=O)[nH]c12 (configuration not stated) here?
Answer: Its Potency is inconclusive: 13 µM [cytotoxic, partial curve, poor fit].

Question: For CC1(C(=O)Nc2ccc3c(c2)OCO3)CCN1C(=O)Cc1ccc(-c2ccccc2)cc1 (configuration not stated), which Potency is on record?
Answer: The Potency was active: 3.26 µM.

Question: For OC(CNCc1cccs1)c1ccccc1 (configuration not stated), which Potency is on record?
Answer: Its Potency is inconclusive: 29.1 µM [rising, single point].

Question: For CCc1cc2c(=O)c(-c3nc(C)cs3)coc2cc1OC(C)C(=O)NCCO (configuration not stated), which Potency is on record?
Answer: The Potency was inconclusive: 16.4 µM [cytotoxic, single point].

Question: With CC(=NNC(=O)c1cccc(S(=O)(=O)N2CCOCC2)c1)c1ccc(Cl)cc1 as the compound, how does the Potency read?
Answer: Its Potency is inconclusive: 16.4 µM [cytotoxic, single point].

Question: Which Potency does the source give for N#Cc1cc(C(=O)Cc2ccccc2)c[nH]1 here?
Answer: The Potency was inconclusive: 29.1 µM [rising, single point].

Question: For O=C1COc2ccc(C(=O)COC(=O)c3ccccc3F)cc2N1, which Potency is on record?
Answer: Its Potency is “inactive”.

Question: With c1ccc(OCc2nc3c4c(ncn3n2)-c2ccccc2CC42CCCC2)cc1 as the compound, how does the Potency read?
Answer: Its Potency is inconclusive: 9.2 µM [cytotoxic, partial curve].

Question: For CN(c1ccccc1C(=O)N1CCN(c2cccc(Cl)c2)CC1)S(C)(=O)=O, which Potency is on record?
Answer: Its Potency is inconclusive: 9.2 µM [cytotoxic, partial curve].

Question: For CC(=O)N1CCOCCOCCN(C(C)=O)CCOCC1, which Potency is on record?
Answer: The Potency was inconclusive: 23.1 µM [rising, single point].

Question: With Clc1cccc(/C=N/Nc2ncnc3ccccc23)c1 as the compound, how does the Potency read?
Answer: The Potency was “inactive”.

Question: Which Potency does the source give for O=C(NCC1CCCO1)c1ccc(CS(=O)(=O)c2ccc(Cl)cc2)o1 (configuration not stated) here?
Answer: Its Potency is active: 23.1 µM.

Question: With Cc1ccccc1CC1(CO)CCCN(Cc2ccccc2Cl)C1 (configuration not stated) as the compound, how does the Potency read?
Answer: The Potency was inconclusive: 8.2 µM [cytotoxic, partial curve].

Question: With Cc1cccc(NC(=O)CN2CCN(CC(=O)NCc3ccc(Cl)cc3Cl)CC2)c1C as the compound, how does the Potency read?
Answer: Its Potency is active: 3.66 µM.

Question: For O=C(NCc1ccccc1)c1ccc(-c2ccc(F)cc2)o1, which Potency is on record?
Answer: The Potency was active: 18.4 µM.

Question: For O=C(Cn1cc([N+](=O)[O-])ccc1=O)NCC1COc2ccccc2O1 (configuration not stated), which Potency is on record?
Answer: The Potency was “inactive”.

Question: For COc1ccc(NC(=O)COC(=O)C2CCC2)cc1Cl, which Potency is on record?
Answer: The Potency was “inactive”.

Question: Which Potency does the source give for CCC(c1nnnn1Cc1ccccc1)N1CCN(C(=O)c2ccco2)CC1 (configuration not stated) here?
Answer: The Potency was inconclusive: 4.11 µM [cytotoxic, full curve, poor fit].

Question: With O=C(c1cccc(F)c1)N1CCCC(C(=O)N2CCCCCC2)C1 (configuration not stated) as the compound, how does the Potency read?
Answer: The Potency was “inactive”.

Question: With COc1ccc(C2c3c(oc4ccccc4c3=O)C(=O)N2Cc2ccc3c(c2)OCO3)cc1 (configuration not stated) as the compound, how does the Potency read?
Answer: The Potency was “inactive”.

Question: Which Potency does the source give for N#Cc1ccc(-c2cccnc2)nc1SCc1ccc(Cl)cc1Cl here?
Answer: The Potency was inconclusive: 10 µM [cytotoxic, partial curve].

Question: For O=C(CCS(=O)(=O)c1nc(-c2cccs2)cc(C(F)(F)F)n1)Nc1ccc(OC(F)(F)F)cc1, which Potency is on record?
Answer: The Potency was “inactive”.

Question: With C/C(=N\NC(=O)c1ccc(O)cc1)c1ccc(NC(=O)Cc2ccccc2)cc1 as the compound, how does the Potency read?
Answer: The Potency was inconclusive: 29.1 µM [rising, single point].

Question: Which Potency does the source give for O=C(c1cc([N+](=O)[O-])ccc1N1CCCCC1)N1CCc2ccccc21 here?
Answer: Its Potency is active: 5.8 µM.

Question: For CN1CCN(C2=Cc3ccccc3Sc3cc(F)ccc32)CC1, which Potency is on record?
Answer: The Potency was inconclusive: 22.4 µM [cytotoxic, single point].

Question: Which Potency does the source give for COc1ccc(CC(NC(C)=O)C(=O)NC2CCN(C(=O)C3CCCCC3)CC2)cc1OC (configuration not stated) here?
Answer: Its Potency is “inactive”.

Question: For CC(=O)c1cc(C#N)c(NCCCN(C)C)nc1C, which Potency is on record?
Answer: Its Potency is “inactive”.

Question: For Cc1cccc(NC(=O)C2C3CCC4C(CCC32)C4(Cl)Cl)c1 (configuration not stated), which Potency is on record?
Answer: Its Potency is inconclusive: 5.8 µM [cytotoxic, full curve].

Question: For Cc1cccc(NC(=S)N(Cc2cccs2)Cc2cc3cc(C)cc(C)c3[nH]c2=O)c1, which Potency is on record?
Answer: The Potency was active: 20.6 µM.

Question: For CCN(CC)CCSc1nnc2c3cc(F)ccc3n(Cc3ccccc3)c2n1, which Potency is on record?
Answer: The Potency was “inactive”.

Question: With CCCCN(C)CCNS(=O)(=O)c1ccc2c(c1)n(C)c(=O)c(=O)n2C as the compound, how does the Potency read?
Answer: Its Potency is inconclusive: 23.1 µM [rising, single point].

Source: PubChem BioAssay AID1347076 (National Center for Advancing Translational Sciences (NCATS), 2019)
